Drawing on publication PMC10973386, this text covers binding for 1 substance.

The chains behind the UniProt entries cited, without tags or fusion partners.
UniProt Q9Y5B8: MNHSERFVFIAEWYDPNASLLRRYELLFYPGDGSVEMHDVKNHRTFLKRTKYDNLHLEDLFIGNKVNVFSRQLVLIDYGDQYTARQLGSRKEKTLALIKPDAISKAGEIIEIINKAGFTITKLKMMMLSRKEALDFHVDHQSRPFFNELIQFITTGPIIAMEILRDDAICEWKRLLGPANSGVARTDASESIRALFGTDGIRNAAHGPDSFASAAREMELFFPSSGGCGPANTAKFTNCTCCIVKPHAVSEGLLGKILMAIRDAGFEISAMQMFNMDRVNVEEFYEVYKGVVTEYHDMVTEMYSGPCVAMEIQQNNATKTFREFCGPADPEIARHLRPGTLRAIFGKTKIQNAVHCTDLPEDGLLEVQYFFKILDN

These are yes or no findings as the source states them, for the method shown. In cells and extracts the contact can be indirect. Some results given as binding are weak or reduced against the parent protein; the word gives no strength. Sequences can lack the tags named with a protein.

This test deals with T1, FLAG-TCHP full length (human) (UniProt Q9BT92).
T1 sequence: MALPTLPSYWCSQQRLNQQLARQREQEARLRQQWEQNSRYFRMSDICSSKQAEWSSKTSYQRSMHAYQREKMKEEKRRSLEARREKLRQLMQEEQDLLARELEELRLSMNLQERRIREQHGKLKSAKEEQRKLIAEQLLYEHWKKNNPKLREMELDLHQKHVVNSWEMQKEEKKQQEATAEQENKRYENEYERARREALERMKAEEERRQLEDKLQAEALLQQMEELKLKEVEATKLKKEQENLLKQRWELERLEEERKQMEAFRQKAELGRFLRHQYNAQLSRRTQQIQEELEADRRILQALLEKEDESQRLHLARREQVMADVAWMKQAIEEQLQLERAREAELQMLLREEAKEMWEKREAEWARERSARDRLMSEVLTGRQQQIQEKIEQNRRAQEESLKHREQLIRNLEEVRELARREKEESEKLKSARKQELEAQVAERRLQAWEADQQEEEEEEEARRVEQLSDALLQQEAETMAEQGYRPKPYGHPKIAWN
Kind of test: co-IP; FLAG pulldown: FLAG-tagged constructs expressed in HEK293T cells; lysis in EBC buffer (140 mM NaCl, 10 mM Tris-HCl, 0.5% NP-40, protease inhibitors); anti-FLAG (M2) magnetic beads 1 h, five washes, elution with FLAG peptide; immunoblot.

Regarding “NME7 in HEK293T cells (from UniProt Q9Y5B8 1-376)”, the binding entry is “binds”.
